Patent US5880158A, “Propionamide anticonvulsants” (Research Corporation Tech., Inc., priority 1997, dated 1999)

How the values were obtained:
[1] = tested on: male albino Cartworth Farms No. 1 mice; test: maximal electroshock seizure (MES) test in mice; type: in vivo; conditions: intraperitoneal, in brackets beside ED50
[2] = tested on: male albino Cartworth Farms No. 1 mice; test: rotorod test, neurologic toxicity in mice; type: in vivo; conditions: intraperitoneal, in brackets beside TD50

SMILES: O=C(NCc1ccccc1)C(O)CO (racemic) [R, S OH CH2 OH, N-Benzyl 2,3-Dihydroxypropionamide]
- time of peak effect, MES ED50 [1]: 0.5 h

SMILES: COC[C@@H](OC)C(=O)NCc1ccccc1 [R OCH3 CH2 OCH3, (R)-N-Benzyl-2,3-dimethoxypropionamide]
- time of peak effect, MES ED50 [1]: 0.5 h
- time of peak effect, Tox TD50 [2]: 0.5 h

SMILES: COCC(OC)C(=O)NCc1ccccc1 (stereo not drawn) [R, S OCH3 CH2 OCH3, N-BENZYL 2,3-DIMETHOXY PROPIONAMIDE]
- time of peak effect, MES ED50 [1]: 0.25 h
- time of peak effect, Tox TD50 [2]: 0.25 h

SMILES: COC[C@H](OC)C(=O)NCc1ccccc1 [S OCH3 CH2 OCH3, (S)-N-Benzyl-2,3-dimethoxypropionamide]
- time of peak effect, MES ED50 [1]: 0.5 h

SMILES: CCC1(c2ccccc2)C(=O)NC(=O)NC1=O [phenobarbital]
- time of peak effect, MES ED50 [1]: 1 h
- time of peak effect, Tox TD50 [2]: 0.5 h

SMILES: O=C1NC(=O)C(c2ccccc2)(c2ccccc2)N1 [phenytoin]
- time of peak effect, MES ED50 [1]: 2 h
- time of peak effect, Tox TD50 [2]: 0.5 h

SMILES: CCCC(CCC)C(=O)O [valproate]
- time of peak effect, MES ED50 [1]: 0.25 h
- time of peak effect, Tox TD50 [2]: 0.25 h
